Experimental data as given in paper PMC7819943, “Rice protein-binding microarrays: a tool to detect cis-acting elements near promoter regions in rice”.
This is one part of the list.

By UniProt entry, the sequences of proteins in these tests, tags left out.
UniProt Q0JBA9, entry or part of it: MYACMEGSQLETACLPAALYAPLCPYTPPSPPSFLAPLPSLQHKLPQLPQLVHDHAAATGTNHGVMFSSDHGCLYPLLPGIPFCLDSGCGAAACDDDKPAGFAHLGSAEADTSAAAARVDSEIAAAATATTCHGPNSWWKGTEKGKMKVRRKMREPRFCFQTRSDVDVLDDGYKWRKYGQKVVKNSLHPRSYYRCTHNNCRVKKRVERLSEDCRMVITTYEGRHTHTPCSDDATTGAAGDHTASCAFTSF

These sequences were tested against OsWRKY34 (Oryza sativa, UniProt Q0JBA9 1-250) (assay: protein-binding microarray (RPBM); PBS, 2% BSA, 51.3 ng/ul salmon testes DNA, 50 uM zinc acetate, 200 nM TF, 25 C, 1 h; high values mean tight binding). Details: protein: recombinant; tags: N-terminal polyhistidine and DsRed monomer fusion (pET32a); label: CyDye5-dUTP incorporated in the synthesized complementary strand; 3' TTTTT single-stranded linker to array surface; dsDNA, one strand shown.
Summary of the method: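 Binding signal here means per-feature fluorescence intensity in arbitrary units. The values were read on an Axon 4000B scanner after a custom Agilent array, double-stranded by primer extension with Cy5-dUTP, was incubated with 200 nM protein at 25 °C for 1 h in PBS with 2% BSA, salmon testes DNA and 50 µM zinc acetate, then washed. The proteins were transcription factors with an N-terminal polyhistidine tag and DsRed, expressed in E. coli BL21-CodonPlus and purified on Ni–NTA.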

Sequence | binding signal
CTGCAACTGTAAGCTTTTCCCACCATTTGCACGCTTCCCACGGAGTCACCTAGTGCAG | 8300 fluorescence intensity (a.u.)
TAGTAGTAGAGCAGTAGTAGCAGTGTTGTTTTCTTCATCTCGGAGTCACCTAGTGCAG | 8590 fluorescence intensity (a.u.)
GGAGGCGGCGGCGACGAGGAGGGGCGTGGGCGGCGGCGGCCGGAGTCACCTAGTGCAG | 8760 fluorescence intensity (a.u.)
ATCGAGATAGATGCCACTCAACGCACACCATGCACCGTACCGGAGTCACCTAGTGCAG | 8530 fluorescence intensity (a.u.)
TTCCCAGACTTCACCAAATCCTAGATCTACTCCTCTTCCTCGGAGTCACCTAGTGCAG | 8790 fluorescence intensity (a.u.)
AAACAGAGGTTTTTCTCCTGTACATGTGTCCCATGCCAACCGGAGTCACCTAGTGCAG | 9880 fluorescence intensity (a.u.)
TACTTCGCATCATACCTCGCCCTTTTAACCTTCACTGCTACGGAGTCACCTAGTGCAG | 10500 fluorescence intensity (a.u.)
CTGGTGGTAGTGTTGGGGCGGGGCCTCGCCCACTTGTTCCCGGAGTCACCTAGTGCAG | 8910 fluorescence intensity (a.u.)
GTTCTTCTGTGCAGTTTAGCCTAAATCTGTTCAGTTTTACCGGAGTCACCTAGTGCAG | 8050 fluorescence intensity (a.u.)
TCATCTTGCTTTCCCCTTCTTCGCCCACGCGGCCGCGGCCCGGAGTCACCTAGTGCAG | 8620 fluorescence intensity (a.u.)
CCTCGACCACCCTCGCCGGAGCCCTCACGACCTCTGCCCTCGGAGTCACCTAGTGCAG | 8050 fluorescence intensity (a.u.)
AGGTTTGCTCCCAAATCTGCACTGGGTCAATGTTTTCTCCCGGAGTCACCTAGTGCAG | 9840 fluorescence intensity (a.u.)
TCTCTTCCGGTCGGAAGCTTGCTTTCCTTTTCTTCTTCTTCGGAGTCACCTAGTGCAG | 8360 fluorescence intensity (a.u.)
GATTCTTCTGTTATTTGTTTGTCCTTCTATCTCCAAATCTCGGAGTCACCTAGTGCAG | 8660 fluorescence intensity (a.u.)
GATTCAATCTTTCGCTATTTTTTTCCTTTCCTCTGAAATTCGGAGTCACCTAGTGCAG | 10500 fluorescence intensity (a.u.)
GCTGCTGGTGAGAGTGGTGATCGCGTACCTTGTGTTTTGCCGGAGTCACCTAGTGCAG | 8110 fluorescence intensity (a.u.)
TTTTGTCCTTCAACCTGTTGAAGTTGTTTTCAGTTGTTCACGGAGTCACCTAGTGCAG | 11600 fluorescence intensity (a.u.)
GTTTTGTATAATTTAGGGGCGGAGATTTTTGGTTTTGTGGCGGAGTCACCTAGTGCAG | 9700 fluorescence intensity (a.u.)
ACTGTTCATCACACTCACACCTGCAGCCAAAAAGCTTGAGCGGAGTCACCTAGTGCAG | 9120 fluorescence intensity (a.u.)
GCTGCCTCTGGTTTGCTCTGCTCTCTACCGGCTTAACCACCGGAGTCACCTAGTGCAG | 9320 fluorescence intensity (a.u.)
AGCATCCAACCGTCCATACCGCTCGTTGCCCTACTCTTTGCGGAGTCACCTAGTGCAG | 8230 fluorescence intensity (a.u.)
GTGTGTGGTGTGGTGGTCCTCGCGCGCAATTGCTTTCCGTCGGAGTCACCTAGTGCAG | 10200 fluorescence intensity (a.u.)
TCTCTCTCTCTCCTCTCTCTCTCTCTCTTCAATCCTTCATCGGAGTCACCTAGTGCAG | 8090 fluorescence intensity (a.u.)

Random excerpt: 2 entries already listed
Sequence | binding signal
AAACAGAGGTTTTTCTCCTGTACATGTGTCCCATGCCAACCGGAGTCACCTAGTGCAG | 9880 fluorescence intensity (a.u.)
GCTGCTGGTGAGAGTGGTGATCGCGTACCTTGTGTTTTGCCGGAGTCACCTAGTGCAG | 8110 fluorescence intensity (a.u.)
